Some of the results follow. Most entries show no effect beyond the scatter of the controls.
Compound: CN[C@@H]1C[C@H]2O[C@@](C)([C@@H]1OC)n1c3ccccc3c3c4c(c5c6ccccc6n2c5c31)C(=O)NC4 [staurosporine]
Assay: log2 fold change of tryptic peptide abundance, ligand vs vehicle (limited proteolysis) (log2 ratio); higher = more trypsin-susceptible (destabilized)
Settings: ligand concentration: 20 uM; sample: mouse liver crude lysate; replicate design: treated separately

Sequences of proteins named here, by UniProt entry; tags and fusion partners are left off. A change or cut given only in a name is not applied to a line headed by its entry.
UniProt Q8K212, whole entry: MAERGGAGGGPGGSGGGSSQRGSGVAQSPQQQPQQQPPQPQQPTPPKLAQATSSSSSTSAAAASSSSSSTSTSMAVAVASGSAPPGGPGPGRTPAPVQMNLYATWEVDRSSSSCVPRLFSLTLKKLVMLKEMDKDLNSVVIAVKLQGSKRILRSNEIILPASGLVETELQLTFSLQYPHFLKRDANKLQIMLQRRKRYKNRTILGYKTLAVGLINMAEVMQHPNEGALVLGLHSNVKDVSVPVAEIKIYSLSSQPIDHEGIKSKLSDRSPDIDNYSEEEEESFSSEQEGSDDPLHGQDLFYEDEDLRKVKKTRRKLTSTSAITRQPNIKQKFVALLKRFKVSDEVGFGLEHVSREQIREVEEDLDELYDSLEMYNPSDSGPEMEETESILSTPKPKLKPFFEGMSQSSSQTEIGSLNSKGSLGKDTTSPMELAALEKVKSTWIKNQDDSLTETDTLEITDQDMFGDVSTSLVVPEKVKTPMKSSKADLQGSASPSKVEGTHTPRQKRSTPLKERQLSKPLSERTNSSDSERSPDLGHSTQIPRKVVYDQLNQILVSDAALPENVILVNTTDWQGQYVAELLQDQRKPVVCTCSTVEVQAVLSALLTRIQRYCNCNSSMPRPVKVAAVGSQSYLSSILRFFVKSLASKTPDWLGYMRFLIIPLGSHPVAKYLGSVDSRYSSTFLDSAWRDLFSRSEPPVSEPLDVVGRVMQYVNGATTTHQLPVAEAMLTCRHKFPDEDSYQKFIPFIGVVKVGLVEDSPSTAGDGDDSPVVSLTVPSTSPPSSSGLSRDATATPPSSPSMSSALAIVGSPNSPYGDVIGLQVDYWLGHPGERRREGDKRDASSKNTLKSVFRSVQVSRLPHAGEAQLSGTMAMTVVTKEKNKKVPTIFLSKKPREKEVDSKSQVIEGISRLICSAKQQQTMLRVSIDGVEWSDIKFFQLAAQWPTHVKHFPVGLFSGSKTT
UniProt Q8R0K9: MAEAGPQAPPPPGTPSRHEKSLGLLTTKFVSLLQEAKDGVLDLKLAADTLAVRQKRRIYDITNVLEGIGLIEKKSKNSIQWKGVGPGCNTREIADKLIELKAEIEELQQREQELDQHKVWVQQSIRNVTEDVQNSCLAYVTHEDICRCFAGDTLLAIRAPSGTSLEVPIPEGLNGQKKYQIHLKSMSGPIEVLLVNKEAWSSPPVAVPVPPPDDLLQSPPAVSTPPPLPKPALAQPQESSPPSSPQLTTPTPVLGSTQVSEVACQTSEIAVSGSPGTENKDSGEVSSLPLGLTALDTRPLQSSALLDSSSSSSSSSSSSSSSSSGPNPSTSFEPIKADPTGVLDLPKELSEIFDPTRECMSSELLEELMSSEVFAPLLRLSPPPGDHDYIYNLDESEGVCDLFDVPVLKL
UniProt Q8K2K6: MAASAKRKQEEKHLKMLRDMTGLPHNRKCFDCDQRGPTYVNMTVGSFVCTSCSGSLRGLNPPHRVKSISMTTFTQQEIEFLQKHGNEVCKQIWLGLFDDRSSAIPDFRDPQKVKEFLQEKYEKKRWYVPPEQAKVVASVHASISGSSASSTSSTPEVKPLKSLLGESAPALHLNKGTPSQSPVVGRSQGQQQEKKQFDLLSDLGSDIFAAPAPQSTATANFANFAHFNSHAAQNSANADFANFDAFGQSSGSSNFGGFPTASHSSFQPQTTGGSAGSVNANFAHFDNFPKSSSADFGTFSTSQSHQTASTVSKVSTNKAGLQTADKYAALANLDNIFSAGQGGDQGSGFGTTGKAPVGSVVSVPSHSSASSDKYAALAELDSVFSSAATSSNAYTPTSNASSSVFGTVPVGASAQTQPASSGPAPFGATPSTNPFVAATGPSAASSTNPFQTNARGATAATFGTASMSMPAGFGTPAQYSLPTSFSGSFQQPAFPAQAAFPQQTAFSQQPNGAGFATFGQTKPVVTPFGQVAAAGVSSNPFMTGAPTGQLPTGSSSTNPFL
UniProt Q8K4K6: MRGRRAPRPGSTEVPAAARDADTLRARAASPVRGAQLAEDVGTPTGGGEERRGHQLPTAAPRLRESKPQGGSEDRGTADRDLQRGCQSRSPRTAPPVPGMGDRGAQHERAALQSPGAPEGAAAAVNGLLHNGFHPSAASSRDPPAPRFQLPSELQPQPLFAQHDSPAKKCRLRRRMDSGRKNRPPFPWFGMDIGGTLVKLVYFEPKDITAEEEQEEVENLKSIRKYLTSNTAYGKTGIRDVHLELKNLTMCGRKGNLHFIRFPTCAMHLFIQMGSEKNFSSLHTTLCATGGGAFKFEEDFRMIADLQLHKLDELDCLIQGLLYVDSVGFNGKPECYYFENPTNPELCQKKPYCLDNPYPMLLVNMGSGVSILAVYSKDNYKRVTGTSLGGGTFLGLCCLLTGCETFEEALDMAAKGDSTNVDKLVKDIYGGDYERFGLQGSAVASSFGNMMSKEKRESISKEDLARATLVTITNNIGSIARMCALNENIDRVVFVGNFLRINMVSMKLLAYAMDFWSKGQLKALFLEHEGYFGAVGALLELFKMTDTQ
UniProt Q8K3D3: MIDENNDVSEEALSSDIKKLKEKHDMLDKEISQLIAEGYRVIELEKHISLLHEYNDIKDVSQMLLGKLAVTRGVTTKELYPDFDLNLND
UniProt Q8R0F6: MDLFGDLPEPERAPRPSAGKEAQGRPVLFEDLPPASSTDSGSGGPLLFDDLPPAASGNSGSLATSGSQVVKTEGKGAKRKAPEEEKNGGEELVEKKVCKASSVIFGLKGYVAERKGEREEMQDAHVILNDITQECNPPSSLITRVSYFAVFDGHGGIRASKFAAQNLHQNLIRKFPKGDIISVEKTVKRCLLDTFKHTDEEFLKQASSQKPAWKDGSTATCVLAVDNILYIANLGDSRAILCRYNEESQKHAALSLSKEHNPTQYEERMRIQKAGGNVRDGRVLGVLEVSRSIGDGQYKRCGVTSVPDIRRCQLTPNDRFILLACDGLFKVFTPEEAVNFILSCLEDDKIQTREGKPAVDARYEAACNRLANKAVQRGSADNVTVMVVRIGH
UniProt Q8R104: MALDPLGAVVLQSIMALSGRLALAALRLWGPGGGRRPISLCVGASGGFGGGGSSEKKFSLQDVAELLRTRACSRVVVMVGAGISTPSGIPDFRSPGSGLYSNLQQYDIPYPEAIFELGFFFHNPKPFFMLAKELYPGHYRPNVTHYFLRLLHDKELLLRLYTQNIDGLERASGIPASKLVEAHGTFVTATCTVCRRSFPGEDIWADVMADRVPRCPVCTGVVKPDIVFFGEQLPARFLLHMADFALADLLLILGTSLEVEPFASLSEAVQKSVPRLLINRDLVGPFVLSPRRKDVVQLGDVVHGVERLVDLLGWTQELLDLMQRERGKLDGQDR
UniProt Q8R216: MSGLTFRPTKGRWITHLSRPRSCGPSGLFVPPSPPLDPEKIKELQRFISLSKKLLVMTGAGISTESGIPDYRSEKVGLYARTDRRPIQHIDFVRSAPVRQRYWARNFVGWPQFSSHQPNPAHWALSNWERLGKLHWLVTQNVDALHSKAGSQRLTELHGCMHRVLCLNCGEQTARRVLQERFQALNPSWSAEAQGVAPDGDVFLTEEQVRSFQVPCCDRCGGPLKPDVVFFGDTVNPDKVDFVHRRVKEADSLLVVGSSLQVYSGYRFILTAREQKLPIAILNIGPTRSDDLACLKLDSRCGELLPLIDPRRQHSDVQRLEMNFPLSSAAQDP
UniProt Q8R1U1: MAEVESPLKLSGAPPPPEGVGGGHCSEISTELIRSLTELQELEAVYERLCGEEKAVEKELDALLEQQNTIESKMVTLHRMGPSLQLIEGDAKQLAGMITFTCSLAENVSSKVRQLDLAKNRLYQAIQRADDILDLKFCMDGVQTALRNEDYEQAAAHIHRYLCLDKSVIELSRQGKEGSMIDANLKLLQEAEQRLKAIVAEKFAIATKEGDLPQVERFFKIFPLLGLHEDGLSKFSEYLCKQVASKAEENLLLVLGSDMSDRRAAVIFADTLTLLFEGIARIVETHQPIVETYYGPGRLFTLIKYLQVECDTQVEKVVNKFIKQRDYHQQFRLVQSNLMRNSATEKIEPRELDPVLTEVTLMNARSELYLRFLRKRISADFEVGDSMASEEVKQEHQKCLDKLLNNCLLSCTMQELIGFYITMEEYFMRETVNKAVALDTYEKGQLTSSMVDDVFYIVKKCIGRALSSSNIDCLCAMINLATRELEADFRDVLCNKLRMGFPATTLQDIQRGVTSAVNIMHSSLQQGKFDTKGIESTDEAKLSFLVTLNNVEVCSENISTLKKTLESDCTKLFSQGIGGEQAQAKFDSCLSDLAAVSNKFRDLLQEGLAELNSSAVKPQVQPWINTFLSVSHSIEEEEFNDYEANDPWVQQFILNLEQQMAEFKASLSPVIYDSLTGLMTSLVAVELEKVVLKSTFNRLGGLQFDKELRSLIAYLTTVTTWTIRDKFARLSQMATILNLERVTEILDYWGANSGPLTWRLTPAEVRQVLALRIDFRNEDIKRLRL
UniProt Q8R0J8: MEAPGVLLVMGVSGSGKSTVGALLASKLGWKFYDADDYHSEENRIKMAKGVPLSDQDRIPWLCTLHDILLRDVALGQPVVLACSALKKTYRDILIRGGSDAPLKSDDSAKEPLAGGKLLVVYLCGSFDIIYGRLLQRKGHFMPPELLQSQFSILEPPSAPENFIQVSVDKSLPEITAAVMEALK
UniProt Q8K2A7, whole entry: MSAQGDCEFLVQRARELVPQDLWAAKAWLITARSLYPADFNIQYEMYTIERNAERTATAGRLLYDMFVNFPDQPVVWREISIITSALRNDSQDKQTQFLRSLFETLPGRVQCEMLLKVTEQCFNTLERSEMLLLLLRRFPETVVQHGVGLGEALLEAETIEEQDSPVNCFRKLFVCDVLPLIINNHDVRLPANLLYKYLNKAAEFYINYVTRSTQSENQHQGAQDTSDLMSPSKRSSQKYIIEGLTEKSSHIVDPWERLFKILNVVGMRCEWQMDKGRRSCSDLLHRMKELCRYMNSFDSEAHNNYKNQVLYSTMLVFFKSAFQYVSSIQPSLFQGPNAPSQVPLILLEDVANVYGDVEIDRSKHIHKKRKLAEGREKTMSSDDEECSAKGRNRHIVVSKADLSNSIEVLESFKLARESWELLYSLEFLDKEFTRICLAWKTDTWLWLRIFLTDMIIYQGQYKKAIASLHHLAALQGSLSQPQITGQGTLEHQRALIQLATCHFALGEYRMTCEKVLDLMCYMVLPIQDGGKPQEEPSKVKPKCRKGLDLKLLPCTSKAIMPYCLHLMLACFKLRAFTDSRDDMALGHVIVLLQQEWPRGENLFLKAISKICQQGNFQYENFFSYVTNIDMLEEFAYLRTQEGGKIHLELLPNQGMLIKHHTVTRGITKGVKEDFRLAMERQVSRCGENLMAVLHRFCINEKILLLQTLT
UniProt Q8R0L9: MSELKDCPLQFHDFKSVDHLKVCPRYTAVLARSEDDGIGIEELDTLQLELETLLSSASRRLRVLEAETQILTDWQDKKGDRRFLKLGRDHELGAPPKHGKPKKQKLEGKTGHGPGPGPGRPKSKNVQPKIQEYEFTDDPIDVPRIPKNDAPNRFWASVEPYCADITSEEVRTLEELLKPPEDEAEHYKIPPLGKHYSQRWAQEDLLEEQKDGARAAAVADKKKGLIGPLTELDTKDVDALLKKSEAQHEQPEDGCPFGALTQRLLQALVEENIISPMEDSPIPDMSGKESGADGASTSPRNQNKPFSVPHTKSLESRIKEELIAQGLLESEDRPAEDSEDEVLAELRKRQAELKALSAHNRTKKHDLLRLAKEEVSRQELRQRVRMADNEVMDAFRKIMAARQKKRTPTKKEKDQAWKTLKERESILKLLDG
UniProt Q8K4L6: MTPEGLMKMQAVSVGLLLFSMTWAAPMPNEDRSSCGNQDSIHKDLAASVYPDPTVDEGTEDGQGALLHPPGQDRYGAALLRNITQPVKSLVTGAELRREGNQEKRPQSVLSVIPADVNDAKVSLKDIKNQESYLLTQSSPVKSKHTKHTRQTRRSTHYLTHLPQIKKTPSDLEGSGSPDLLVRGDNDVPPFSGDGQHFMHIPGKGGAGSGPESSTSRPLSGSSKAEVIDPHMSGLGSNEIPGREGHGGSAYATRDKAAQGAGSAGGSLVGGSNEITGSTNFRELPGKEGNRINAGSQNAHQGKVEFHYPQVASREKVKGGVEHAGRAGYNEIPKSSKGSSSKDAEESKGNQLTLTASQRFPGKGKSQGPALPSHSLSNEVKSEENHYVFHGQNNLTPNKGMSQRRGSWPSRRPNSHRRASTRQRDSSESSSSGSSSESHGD
UniProt Q8K4H1: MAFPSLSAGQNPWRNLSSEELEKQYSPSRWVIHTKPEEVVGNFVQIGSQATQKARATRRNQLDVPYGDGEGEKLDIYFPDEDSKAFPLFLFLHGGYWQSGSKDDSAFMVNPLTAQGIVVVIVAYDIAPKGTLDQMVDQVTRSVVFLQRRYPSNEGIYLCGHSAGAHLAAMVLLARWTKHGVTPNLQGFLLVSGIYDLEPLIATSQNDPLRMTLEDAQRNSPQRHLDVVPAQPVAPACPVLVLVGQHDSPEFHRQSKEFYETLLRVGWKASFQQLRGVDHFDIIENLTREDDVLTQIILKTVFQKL

Target	log2 fold change
UniProt Q8K212 (peptide sequence: FLIIPLGSHPVAK, peptide start residue: 657)	0.315
UniProt Q8R0K9 (peptide sequence: GVGPGCNTR, peptide start residue: 83)	0.257
UniProt Q8K2K6 (peptide sequence: SSAIPDFRDPQKVK, peptide start residue: 101)	0.215
UniProt Q8K2Y7 (peptide sequence: FFAMPYVDR, peptide start residue: 201)	0.198
UniProt Q8K194 (peptide sequence: KVDGSVNAYAINVSQK, peptide start residue: 119)	-0.108
UniProt Q8K4K6 (peptide sequence: VVFVGNFLR, peptide start residue: 492)	-0.363
UniProt Q8K2L8 (peptide sequence: ILLQIGDIK, peptide start residue: 651)	0.26
UniProt Q8K3D3 (peptide sequence: EKHDMLDKEISQLIAEGYR, peptide start residue: 22)	-0.0982
UniProt Q8R183 (peptide sequence: KSESLSFVAFPISK, peptide start residue: 261)	-0.0815
UniProt Q8K1R7 (peptide sequence: VTLLNAPTKRPR, peptide start residue: 319)	-0.262
UniProt Q8R0F6 (peptide sequence: CQLTPNDR, peptide start residue: 312)	0.279
UniProt Q8R104 (peptide sequence: KFSLQDVAELLR, peptide start residue: 57)	-0.296
UniProt Q8K3X4 (peptide sequence: RPGSVSSTDQER, peptide start residue: 310)	-0.844
UniProt Q8K394 (peptide sequence: HTLDMLESSQDNMR, peptide start residue: 256)	0.55
UniProt Q8K400 (peptide sequence: HAHEMMLK, peptide start residue: 1136)	0.323
UniProt Q8R164 (peptide sequence: DAKDAVDLMK, peptide start residue: 117)	0.212

Target	log2 fold change
UniProt Q8R216 (peptide sequence: EQKLPIAILNIGPTR, peptide start residue: 274)	0.129
UniProt Q8R1U1 (peptide sequence: LGGLQFDKELR, peptide start residue: 699)	-0.425
UniProt Q8R107 (peptide sequence: AKETALAATEK, peptide start residue: 189)	0.754
UniProt Q8R1J3 (peptide sequence: RPLSATSWEDMKK, peptide start residue: 14)	0.216
UniProt Q8K358 (peptide sequence: DGTEAMLVLK, peptide start residue: 425)	-0.0755
UniProt Q8R0J8 (peptide sequence: DVALGQPVVLACSALKK, peptide start residue: 72)	0.151
UniProt Q8K339 (peptide sequence: SALDEIMELEEEKKR, peptide start residue: 257)	-0.195
UniProt Q8K2A7 (peptide sequence: ELVPQDLWAAK, peptide start residue: 16)	-0.131
UniProt Q8R0L9 (peptide sequence: WAQEDLLEEQKDGAR, peptide start residue: 200)	-0.173
UniProt Q8K4X7 (peptide sequence: YLFLIHCEGTR, peptide start residue: 169)	0.678
UniProt Q8K4L6 (peptide sequence: RGSWPSRR, peptide start residue: 405)	-0.216
UniProt Q8K4H1 (peptide sequence: EFYETLLR, peptide start residue: 257)	-0.0896
UniProt Q8K2H1 (peptide sequence: YYSHVDCR, peptide start residue: 66)	0.587
UniProt Q8K389 (peptide sequence: AIQGLTMALK, peptide start residue: 314)	0.357
UniProt Q8R0H9 (peptide sequence: SSHPEDLR, peptide start residue: 184)	-0.0708

2 entries drawn at random from the list so far:
Target	log2 fold change
UniProt Q8R107 (peptide sequence: AKETALAATEK, peptide start residue: 189)	0.754
UniProt Q8R0H9 (peptide sequence: SSHPEDLR, peptide start residue: 184)	-0.0708

Reference: the supplement of paper PMC12819154, “High-throughput peptide-centric local stability assay extends protein–ligand identification to membrane proteins, tissues and bacteria” (Nature Structural & Molecular Biology, 2025)
